This list was built around the results that the source calls inconclusive (neither active nor inactive); the mix of calls is not that of the screen. A potency beside an inconclusive call is a rough fit, not a confirmed value. The source made the active and inactive calls. The call rests on the fitted dose curve; in most records, active means well fitted curve in the direction sought with a large enough effect; inconclusive means small, poorly fitted or top-dose-only effect, or another doubt; inactive means no such curve, though single readings can be large or run the other way.
Experiment: qHTS Assay for Rab9 Promoter Activators: Hit Validation Using Renilla Luciferase Read-Out; on activation (negative = inhibition): % of control where 0% means no effect
Conditions: Huh7 NPC1 promoter Renilla luciferase reporter, 24 h; series mostly up to 76.9 µM; activation (negative = inhibition): at the top concentration
From the text: Niemann Pick Type C (NPC) is a rare neurodegenerative lipidosis that is characterized by lipid storage in the endosomal/lysosomal system. Treatment modalities for this devastating disease are currently non-existent due to the severe obstacles associated with accessing the central nervous system with proteins or genes. The majority of mutations causing NPC disease are missense mutations that are distributed throughout the length of the NPC1 protein, with the most prevalent being the I1061T allele. Although NPC1 mutant proteins may be functional, they are typically trapped in the ER due to misfolding. […] We have developed and optimized a cell based renilla luciferase reporter assay in 1536 well format for the identification of up-regulators of the mutant NPC1 promoter. This assay presents data on the validation of hits from the primary screen, which used a firefly luciferase read-out. NIH Chemical Genomics Center [NCGC] NIH Molecular Libraries Probe Production centers Network [MLPCN] MLPCN Grant: MH089375 Assay Submitter (PI): Yiannis A. Ioannou
Huh7 cells stably expressing NPC promoter-luciferase will be seeded at 1,500 cells/well in 5 uL in 1,536-well white opaque plates with 23 nL/well of compound in DMSO solution. The assay plates will be incubated at 37 deg C for 24 hours, after which 3 uL/well BriteLite plus luciferase detection reagent mixture (Perkin Elmer) will be added. Luminescence signal will be measured in a ViewLux plate reader (Perkin Elmer) after a 10 minute incubation at the room temperature.
Potency means the concentration at half of the fitted maximal effect.

Structure (SMILES) | Potency | activation (negative = inhibition)
Nc1ccc(C(=O)Nc2ccccc2N)cc1 | active: 8.23 µM | 
CCC1CCCCN1CCCNC(=O)c1ccc2nc(N3CCCCC3)sc2c1 (stereo unspecified) | inconclusive: 18.4 µM [activator, full curve, poor fit] | 
FC(F)(F)c1ccc(Nc2nnnc3ccccc23)cc1 | inconclusive: 0.0823 µM [activator, full curve, poor fit] | 
N#C/C(=C\c1ccc[nH]1)C(=O)Nc1ccccc1Cl | inconclusive: 4.12 µM [activator, full curve] | 
Fc1ccc(-c2nc3nc4ccccc4nc3n2Cc2ccco2)cc1 |  | inactive: -83.1%
CC(=O)c1c(C)[nH]c(C(=O)Nc2cccc(S(=O)(=O)N(C)C)c2)c1C | active: 26 µM | 
COc1ccc(-c2csc(N(CCCN(C)C)C(=O)c3ccccc3C)n2)cc1 | inconclusive: 9.23 µM [activator, partial curve] | 
COC(=O)c1ccccc1NC(=O)c1ccc(-c2ccc(Br)cc2)o1 |  | inactive: -44.9%
COCCn1c(SCc2ccc(C(=O)OC)o2)nc2cc(Cl)ccc2c1=O | inconclusive: 41.2 µM [activator, single point] | 
COC(=O)c1ccccc1NC(=O)c1cc(-c2cccs2)on1 | inconclusive: 7.33 µM [activator, partial curve, poor fit] | 
O=C(CCCC(=O)N(CC(=O)NC1CCCCC1)c1cccc(F)c1)Nc1ccccn1 | inconclusive: 8.23 µM [activator, partial curve, poor fit] | 
Cc1ccc(C(=O)NCc2ccc3c(c2)OCO3)cc1C | inconclusive: 58.2 µM [activator, partial curve, poor fit] | 
COc1ccc(OC)c(S(=O)(=O)N2CCN3CCCC3C2)c1 (stereo unspecified) | inconclusive: 36.8 µM [activator, partial curve] | 
CCOC(=O)c1ccccc1NC(=O)CSc1nnc(Cc2cccn2C)n1-c1ccc(F)cc1 | inconclusive: 32.8 µM [activator, partial curve] | 
COc1ccc(NC(=O)c2cc3ccccc3o/c2=N\NS(=O)(=O)c2ccc(C)cc2)cc1 | inconclusive: 2.32 µM [activator, full curve] | 
O=C(/C=C/c1ccco1)NCC1OCCc2ccccc21 (stereo unspecified) | inconclusive: 36.8 µM [activator, partial curve, poor fit] | 
Cc1ccc(C2C3=C(CC(C)(C)CC3=O)N(CCN3CCOCC3)C3=C2C(=O)CC(C)(C)C3)cc1 | inconclusive: 58.2 µM [activator, single point] | 
CCOc1cc(C2C(C#N)=C(N)Oc3n[nH]c(C)c32)ccc1OCCN1CCOCC1 (stereo unspecified) |  | inactive: 13.1%
COc1ccc(S(=O)(=O)N2CCCC(C(=O)NCc3ccncc3)C2)cc1Cl (stereo unspecified) | inconclusive: 58.2 µM [activator, single point] | 
CCc1cc2c(N=Nc3c(O)[nH]c4ccccc34)ncnc2s1 | inconclusive: 1.16 µM [activator, full curve] | 
O=C(c1cc2cc(Br)ccc2[nH]1)N1CCc2ccccc21 | inconclusive: 16.4 µM [activator, partial curve] | 
Cc1ccc(S(=O)(=O)/N=C(/Nc2ccccn2)c2ccc(Cl)cc2)cc1 | active: 20.7 µM | 
CCCCCCOc1ccc(OC(=O)c2cccnc2)cc1 | active: 2.07 µM | 
Cc1ccc(CNC(=O)Nc2ccc(C)cc2)cc1 | inconclusive: 14.6 µM [activator, single point] | 
CCOc1ccc(S(=O)(=O)NCc2ccccc2)cc1C(N)=O | inconclusive: 3.68 µM [activator, full curve] | 
CN(C)C(CNC(=O)CNC(=O)c1ccc2ccccc2c1)c1ccccc1 (stereo unspecified) | inconclusive: 26 µM [activator, partial curve, poor fit] | 

2 entries drawn at random from the list so far:
Structure (SMILES) | Potency | activation (negative = inhibition)
N#C/C(=C\c1ccc[nH]1)C(=O)Nc1ccccc1Cl | inconclusive: 4.12 µM [activator, full curve] | 
CCCCCCOc1ccc(OC(=O)c2cccnc2)cc1 | active: 2.07 µM | 

Source: PubChem BioAssay AID624117 (National Center for Advancing Translational Sciences (NCATS), 2012)
